Most values lie at the floor of the assay. Slopes are relative: functional sequences can read slightly below zero.
Tested on: Saccharomyces cerevisiae PS128 hsf1 delta, HSF1(1-493) fusion
Experiment: growth estimate (transactivation domain function in HSF1 fusion, heat-shock survival) (a.u. (slope of normalised read count over time)); higher = stronger growth at 37°C, i.e. more transactivation activity
Settings: library: random library

Substance	growth estimate
KSRMAVPVEGF	< -0.25
TNGSPLRRISQCRRIKS	< -0.25
THRRHKPSIRNKRRSSTSTG	< -0.25
YWICQSDKFP	< -0.25
INGAYVRPRGGLSERFT	< -0.25
RGPSSRSWDKRQITHRAPDH	< -0.25
AMYYTPLCLIVVEFGVTEAV	< -0.25
NFGR	< -0.25
GSIREPRAS	< -0.25
LFCARMVGPPQTVS	< -0.25
GIGKEGKPSATYVASHTRPY	-0.246
PCFHVSATGGAHRLRRYAAQ	< -0.25
HRPVPSNRTGKAGKDAIPSP	< -0.25
FFYAHRARSAN	< -0.25
YALFVRPQCGCRPL	< -0.25
RARILREGGPTKESPGTPEF	< -0.25
PVSGLEPAFSIIDACFSIIR	< -0.25
PSVSKSARSN	< -0.25
AQLCSYRVQEQDVPDYQSCE	< -0.25
LGANDNWVGQTLEMHPIVNG	< -0.25
LPTTWNP	< -0.25
PCVRGEGICY	< -0.25
SGLLGPSVNDCHTC	< -0.25
IMA	< -0.25
SHGRRVEERA	< -0.25

Some values from the results shown:
growth estimate, LFCARMVGPPQTVS is entered as < -0.25
growth estimate, KSRMAVPVEGF is entered as < -0.25
growth estimate, YWICQSDKFP is entered as < -0.25
growth estimate, NFGR is entered as < -0.25
growth estimate, YALFVRPQCGCRPL is entered as < -0.25

Additional results.

Substance	growth estimate
GRFTALA	< -0.25
TPTILLPF	-0.248
TTANNKIVVRYYAMLRVAGS	< -0.25
VVADW	-0.0148
KIKEFLMASVNWISR	< -0.25
VVKRGGRILRCFLVTWAQLR	< -0.25
SRPRVCLSPSRVGPRALLWE	< -0.25
QCVFSNETRYEAR	< -0.25
CAYKGRALFAHSTVKLAISP	< -0.25
VGLLGLEGGIKGPSD	< -0.25
SFAHHYGYYRGQVF	< -0.25
QYE	< -0.25
WQVAKLVS	< -0.25
QTNFAHQG	< -0.25
LVRFTMAGRFSLGHHH	-0.243
HTALGYRNVVCHRRATYPPS	< -0.25
PNSLGMGDPSPICSTAV	< -0.25
SSGLLTPEVSPNRIYDVLA	< -0.25
TYADIVGYYNLVGDIIHPCR	< -0.25
HYVWSPELP	< -0.25
EWFIV	< -0.25
LRSEGFGLRVHGVIEY	< -0.25
PDNSTH	-0.25
SHGVLQPWHLHSNALD	< -0.25
GAPLYIAQDRVYELKVRVIL	< -0.25

Substance	growth estimate
WRRASCSVQAMGSGLL	0.442
LQGLLVELAN	< -0.25
DYCSLKLLRAFRVTRIAQVG	< -0.25
EGLSLVFACSVRTS	< -0.25
FWSRSEYQ	< -0.25
TCVEGQALRIQGVRPRAGGA	< -0.25
STSMGKQ	< -0.25
LAKVGLGHLYIGYRCVERPA	< -0.25
VHYIDRGVCSIVYATRR	< -0.25
GKRLGEPFG	< -0.25
SRRGVTTELD	< -0.25
VERKRPLPQSVPAGQFDNSA	< -0.25
KRSRKDVFGWNTC	< -0.25
GHRESGDKCKG	< -0.25
QNINILFVGPWQHRPRGLRV	< -0.25
SSFE	< -0.25
SVKVNPEDIVSVGGCTLYTR	< -0.25
CVGVYGGLAVGNRLQRRPLG	< -0.25
SIL	< -0.25
PVLLTYISAAISLEYSLIII	< -0.25
TCHVTA	< -0.25
SFMTP	< -0.25
CRSSEGALPAGFARDRTLAI	< -0.25
LRVHWR	< -0.25
CSLPGG	< -0.25

Substance	growth estimate
QVKVFDAAIHLTDRQTDGTK	< -0.25
RLFCDHLLMLRFWATDRGFE	< -0.25
VGLPNPISVHSLLNDMALSA	< -0.25
CAIDEGFAQGYSRSPYKRPG	< -0.25
PRFRQPVFRDEFDPPADPAV	< -0.25
RAVFRGIAVSTRMRSHLWTI	< -0.25
IRPHQPAGYFWTPLVILHTV	< -0.25
GGKVLSYRRALTFPLTLAGR	< -0.25
LCSVCPYRFNTFL	< -0.25
PMRSEFSAP	< -0.25
LSIIGGHFIGDSALLMTHHS	< -0.25
LWVPDGGL	< -0.25
KDFPRGGGGHTPCTLTSVGD	< -0.25
TYTPACWQYPARTWHGSGGL	0.298
RGFGVASVYCSFSYGVVSRI	< -0.25
LEGLYRNTPVSTLSAPIRSA	< -0.25
SSGRCVRGGPTIIGNVEP	< -0.25
RNRSEVYSVLGS	< -0.25
EHTKTVGHGLWTPLRRLRNC	< -0.25
GLRHQLWDWLLVGVRTKACT	< -0.25
ARVVSSRQVTSAFKSPSYRQ	< -0.25
VKVSSPRAEMRGHHSNVDRL	< -0.25
CTELLNLFRGEGMVSTGYSR	< -0.25
MQCAESLLGGTKTNGTRSSL	-0.172
QKRVMPPSGILVDPI	< -0.25

Substance	growth estimate
WALENGRYALKAALHNFY	< -0.25
VRMMTIGLTREGRSGCHIRS	< -0.25
TIYWTC	< -0.25
ADRTVN	< -0.25
LGSLELASLAL	< -0.25
SWPFSEGNGGASPCSQVSPR	< -0.25
WVVA	< -0.25
DRVHRQ	< -0.25
IGSCIQARYIQPGLSFGLLV	< -0.25
LHLICRRD	< -0.25
CRD	< -0.25
CSGC	< -0.25
QYGLPYKTGVIDMQTKLSSL	< -0.25
RGGYKSQPTEQLY	< -0.25
LIHEHSEVHQSVTGHVVWPN	< -0.25
RVE	< -0.25
DQLPRMLEVE	< -0.25
CWWASGQLNTPMRTRSSGSA	< -0.25
AGSTRGRDVMVLYW	< -0.25
AGIQTSSRSVRPFLLGASFL	< -0.25
NHQNPYVQSTLQSFQNQLAV	< -0.25
VTQV	< -0.25
CRIP	< -0.25
RGRLETPQ	< -0.25
ATNSALPRMASLRVQLKFRV	< -0.25

In a second layout: entries from further up.
VRMMTIGLTREGRSGCHIRS
  growth estimate: < -0.25
TIYWTC
  growth estimate: < -0.25
ADRTVN
  growth estimate: < -0.25
LGSLELASLAL
  growth estimate: < -0.25

Next part

Substance	growth estimate
IRSHGPQCRVPFPEAQAQEL	< -0.25
AVAQERGDLGQ	< -0.25
RERI	< -0.25
WCLISLPYNTRGPALYVKCR	< -0.25
SFG	< -0.25
LGVRLPVLRTYFERFDKTGA	< -0.25
NTTIVVRPKH	< -0.25
SGRGSGPNDLVPEVSRPDVG	< -0.25
CGEAGRGSCGPGDTIGFRNS	< -0.25
CQTFAEQPSGSIHFELLTQC	< -0.25
DTRVCQN	< -0.25
AMTLALLGVFGKGCKRYQYE	< -0.25
MDGDSNGVI	< -0.25
HPTDSKGCRCAPQDGGLAH	< -0.25
LVFTGRM	< -0.25
LESGL	< -0.25
IQSLKMEIIRDAFNLHMVRV	< -0.25
FQPK	< -0.25
VSLRDSGLRRAYGRGAVRKG	< -0.25
SYICA	< -0.25
TDLGKIGHGICWVLLIYVLV	< -0.25
LRVPEQIKPSLSTVLGKCLV	< -0.25
IGGDGNRGTDDGCHKTRCIP	< -0.25
CREAQMGPRCMDMRRGWRIS	< -0.25
TPMSVALSYGGY	< -0.25

Reformatted comma-delimited: part of the list above.
Substance,growth estimate
LGANDNWVGQTLEMHPIVNG,< -0.25
LPTTWNP,< -0.25
PCVRGEGICY,< -0.25

Later entries

Substance	growth estimate
QEDHAEKCFKSDCGHVCCGV	< -0.25
RCGRRS	< -0.25
ISGGRSKA	< -0.25
STPKLDCDERLIFSLSTFVL	< -0.25
EIRSVQYSKCRLSLDSCRTA	< -0.25
SLVI	< -0.25
NWRTHGGDIGATL	< -0.25
ISAGPIHIQDIQFKQRTLCT	< -0.25
QGTTYLGECVP	< -0.25
YYTGGHQAVYYATAIPG	< -0.25
IRPQDRSDMNKGNTLLTRQS	< -0.25
VGRNRVFCNCRRS	< -0.25
MCQWPQIRLEQHWSAAHRAP	< -0.25
LSLRGKKLHGNPPCSRDRCA	< -0.25
STGFGHDMVLVNKVPKGLHT	< -0.25
YGLGTGVLRLGDHATPSSRE	< -0.25
SSSSRGTLRA	< -0.25
ELRLSSINRLKTLRLH	< -0.25
VDCSARD	< -0.25
RHAGWMESQKIISER	-0.24
SEEGRCGVPVIGAENNQSEH	< -0.25
VICNKKQRSTAIGAIE	< -0.25
RKPEGSITDRLRY	< -0.25
DKATLFCQIDRSPFLVTALS	-0.246
VRRARDTLCWSQALRLRHSR	< -0.25

Substance	growth estimate
TDCLEAGATVYLRMNFEGRD	< -0.25
YGLVLVAPTV	< -0.25
RLQRGIDLNIQRIVTDAAER	< -0.25
ALFASRTGSWGFLNSLRNVC	< -0.25
TGLPRDG	< -0.25
GDATKVGLGESVGTGRTTRQ	< -0.25
TLTQHPLFV	< -0.25
CPQARGNGLGLGDAGSEPGQ	< -0.25
SAGLILEVRAQPSLSNKSLR	< -0.25
ALWFGDENHLPLQLRRNPCM	< -0.25
DGSMKQTQPTLW	< -0.25
NSRAFNEKVVLSF	< -0.25
VCSAPGQSCVQSNYPPSPSF	< -0.25
TIFLYVEATRVEAQGALIPS	< -0.25
GLDFF	-0.19
ALHENY	< -0.25
TSASR	-0.189
DRSVKELNDLYPIR	< -0.25
AEYLTSLRRTGQLNNRRTYA	< -0.25
CRYGCRRREYATGVRLFTEQ	< -0.25
CLYFTLSSGSRCAR	< -0.25
RARHVGLTVNGEMISVITVR	< -0.25
CTKLITRKRFPVDSVNGIAI	< -0.25
EGIW	< -0.25
